For the assay, the target named is T1, SPESP1 overexpressed in HDFs (lentivirus encoding full-length SPESP1 cDNA) (UniProt Q6UW49).
T1 sequence: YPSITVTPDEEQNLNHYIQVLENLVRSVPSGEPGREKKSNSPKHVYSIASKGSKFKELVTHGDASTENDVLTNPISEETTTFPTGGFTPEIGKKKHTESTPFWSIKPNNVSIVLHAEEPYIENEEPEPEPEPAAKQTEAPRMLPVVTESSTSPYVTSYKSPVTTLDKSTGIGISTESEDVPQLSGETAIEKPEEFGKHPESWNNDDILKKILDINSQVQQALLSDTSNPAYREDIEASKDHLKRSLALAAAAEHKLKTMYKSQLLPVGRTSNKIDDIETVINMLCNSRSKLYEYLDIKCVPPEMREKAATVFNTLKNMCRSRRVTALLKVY
Briefly: affinity purification with mass spectrometry; SPESP1 overexpressed in HDFs; lysates immunoprecipitated with an anti-SPESP1 antibody; eluents analysed by LC-MS/MS.

By UniProt entry, the sequences of proteins in these tests, tags left out.
UniProt P51608: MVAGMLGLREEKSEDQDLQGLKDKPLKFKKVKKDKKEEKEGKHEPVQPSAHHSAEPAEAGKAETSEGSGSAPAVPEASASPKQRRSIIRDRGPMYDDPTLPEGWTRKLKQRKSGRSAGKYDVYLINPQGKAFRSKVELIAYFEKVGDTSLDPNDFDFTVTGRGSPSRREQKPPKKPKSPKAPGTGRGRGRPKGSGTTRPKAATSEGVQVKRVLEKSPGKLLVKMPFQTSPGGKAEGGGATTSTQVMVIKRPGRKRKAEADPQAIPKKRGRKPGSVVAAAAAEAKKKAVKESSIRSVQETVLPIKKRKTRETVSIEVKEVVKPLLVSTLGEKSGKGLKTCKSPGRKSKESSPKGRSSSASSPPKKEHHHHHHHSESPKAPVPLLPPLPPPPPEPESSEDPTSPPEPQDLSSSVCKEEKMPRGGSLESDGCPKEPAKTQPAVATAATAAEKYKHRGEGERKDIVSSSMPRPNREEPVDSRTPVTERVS

From publication PMC11103130 come the findings set out here.

These are yes or no findings as the source states them, for the method shown. Binding seen in cells or lysates may run through a third protein. A yes stands for co-enrichment or nearness to the bait. Other partners may have been found.

For “methyl-CpG-binding protein 2 (MeCP2), endogenous (from UniProt P51608 1-486)”, the binding result is on record as “binds”.
